Experimental findings from paper PMC8476631 are described below.

Amino acid sequences for entries named in this document (tags omitted).
UniProt Q93009: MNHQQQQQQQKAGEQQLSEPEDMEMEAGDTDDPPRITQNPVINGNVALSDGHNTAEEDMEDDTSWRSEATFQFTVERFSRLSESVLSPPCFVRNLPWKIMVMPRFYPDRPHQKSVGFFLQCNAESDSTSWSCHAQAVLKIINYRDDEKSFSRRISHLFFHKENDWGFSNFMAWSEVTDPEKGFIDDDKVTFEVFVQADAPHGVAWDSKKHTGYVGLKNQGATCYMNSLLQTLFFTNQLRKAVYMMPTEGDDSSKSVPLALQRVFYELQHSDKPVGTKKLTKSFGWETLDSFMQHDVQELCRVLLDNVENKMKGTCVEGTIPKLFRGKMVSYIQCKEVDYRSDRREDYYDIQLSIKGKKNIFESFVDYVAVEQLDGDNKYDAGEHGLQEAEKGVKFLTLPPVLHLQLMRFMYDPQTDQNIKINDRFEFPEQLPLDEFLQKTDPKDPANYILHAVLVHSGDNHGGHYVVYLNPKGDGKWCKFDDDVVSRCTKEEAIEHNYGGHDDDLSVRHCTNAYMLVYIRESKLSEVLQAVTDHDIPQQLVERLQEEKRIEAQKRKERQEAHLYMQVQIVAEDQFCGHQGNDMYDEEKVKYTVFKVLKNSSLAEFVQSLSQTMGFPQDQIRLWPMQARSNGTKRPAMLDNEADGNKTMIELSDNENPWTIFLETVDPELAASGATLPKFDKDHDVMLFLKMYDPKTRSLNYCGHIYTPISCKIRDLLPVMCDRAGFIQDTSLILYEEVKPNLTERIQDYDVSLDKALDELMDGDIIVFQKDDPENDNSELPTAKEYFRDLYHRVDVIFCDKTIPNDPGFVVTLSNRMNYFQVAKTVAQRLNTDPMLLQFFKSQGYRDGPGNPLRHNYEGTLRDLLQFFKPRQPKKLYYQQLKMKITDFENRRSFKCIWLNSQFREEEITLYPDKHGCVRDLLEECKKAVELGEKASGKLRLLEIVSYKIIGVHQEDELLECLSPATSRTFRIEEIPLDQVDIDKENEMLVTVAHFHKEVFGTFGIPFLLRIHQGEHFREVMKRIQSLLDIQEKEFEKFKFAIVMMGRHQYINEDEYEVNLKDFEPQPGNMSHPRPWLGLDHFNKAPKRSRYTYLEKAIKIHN
UniProt P84022: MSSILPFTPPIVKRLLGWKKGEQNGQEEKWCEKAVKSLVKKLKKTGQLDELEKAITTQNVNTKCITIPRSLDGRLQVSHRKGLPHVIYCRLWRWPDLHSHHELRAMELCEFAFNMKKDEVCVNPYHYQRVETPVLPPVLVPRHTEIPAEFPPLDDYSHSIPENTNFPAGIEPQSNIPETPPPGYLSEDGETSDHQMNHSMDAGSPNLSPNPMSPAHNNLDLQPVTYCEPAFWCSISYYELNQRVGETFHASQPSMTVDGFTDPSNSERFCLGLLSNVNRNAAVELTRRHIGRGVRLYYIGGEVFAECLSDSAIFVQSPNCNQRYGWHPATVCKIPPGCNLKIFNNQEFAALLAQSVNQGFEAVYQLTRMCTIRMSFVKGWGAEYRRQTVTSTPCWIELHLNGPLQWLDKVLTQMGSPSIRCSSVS

Assay [1] concerns the target Flag-tagged USP7 wildtype (WT) (UniProt Q93009). The experiment in a line: co-IP; HEK293T cells co-transfected with indicated plasmids, lysed 48 h later in BC150 buffer (50 mM Tris-HCl pH 7.9, 150 mM NaCl, 0.5 mM EDTA) with 0.2% Triton X-100; cleared lysates immunoprecipitated with anti-HA or anti-Flag agarose beads; immunoblotting. Background: In western blotting, separated proteins are transferred to a membrane and probed.

In a further assay the target is Flag-HA-tagged SMAD3 (UniProt P84022). The assay is described as above.

No constants are given. Whether binding was seen depends on the method and setting. In cells and extracts the contact can be indirect. Some results given as binding are weak or reduced against the parent protein; the word gives no strength.

As to “Myc-tagged SMAD3 (from UniProt P84022 1-425)”, the binding result in assay [1] is given as “binds”. Consider “Flag-tagged USP7 wildtype (WT) (from UniProt Q93009 1-1102) (enzyme)”, for which the binding result with Flag-HA-tagged SMAD3 is recorded as “binds”.
